According to patent EP1261344B1, “USE OF INDOLOQUINOXALINES FOR THE TREATMENT OF MULTIPLE SKLEROSIS” (OxyPharma AB, priority 2000, dated 2001):
At least one compound was matched to its structure with a doubt left.

System: EAE (experimental autoimmune encephalomyelitis) model
Assay: EAE (experimental autoimmune encephalomyelitis) rat model, clinical score
Assay type: in vivo, Lewis rats
Settings: for total effect / MS effect: versus control

For `Cc1cc2nc3c4ccccc4n(CCN(C)C)c3nc2cc1C` [B-220], the total effect (Figure 2, 6 mg/animal) was “substantially lower”, the animals without symptoms (Figure 2, 12 mg/animal) was “A majority of the animals do not show any symptoms at all” and the total effect (Figure 2, 12 mg/animal) was “dramatically lowered”. For the same molecule, the “clinical symptoms (clinical score)” value (Figure 2, doses 6 and 12 mg/animal) was “down-regulate the clinical symptoms (clinical score) in a dose dependent manner”, the MS effect (Figure 3, pre-treatment, 6 mg/animal, days -7 to +7 relative to day 0) was “clear lowered and delayed MS effect” and the MS effect (Figure 4, after-treatment, 6 mg/animal, from day 7 throughout the experiment) was “lowered the MS effect”.
